Assay [1] concerns the target GST-Cdc42 constitutively active (CA/Q61L), preloaded with GTPγS (UniProt P60953). Put plainly: pull-down; Glutathione-Sepharose beads coated with GST alone or GST-GTPase fusions pre-loaded with GDP (DN) or GTPγS (CA), incubated with lysates of HEK293T cells expressing GFP-CRN7 WT or CRIB mutants; blot with GFP mAb K3-184-2 or anti-N-WASP; ImageJ quantification, input set at 100%; only the target purified.

By UniProt entry, the sequences of proteins in these tests, tags left out. Where a name states a change or a piece, a line headed by the entry shows the natural chain unless it says otherwise.
UniProt P60953: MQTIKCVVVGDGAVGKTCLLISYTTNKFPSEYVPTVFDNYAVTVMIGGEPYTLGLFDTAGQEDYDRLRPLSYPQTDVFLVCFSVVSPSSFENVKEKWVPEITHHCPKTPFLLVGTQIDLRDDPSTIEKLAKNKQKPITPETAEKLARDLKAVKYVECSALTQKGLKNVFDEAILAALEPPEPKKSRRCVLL
UniProt P57737: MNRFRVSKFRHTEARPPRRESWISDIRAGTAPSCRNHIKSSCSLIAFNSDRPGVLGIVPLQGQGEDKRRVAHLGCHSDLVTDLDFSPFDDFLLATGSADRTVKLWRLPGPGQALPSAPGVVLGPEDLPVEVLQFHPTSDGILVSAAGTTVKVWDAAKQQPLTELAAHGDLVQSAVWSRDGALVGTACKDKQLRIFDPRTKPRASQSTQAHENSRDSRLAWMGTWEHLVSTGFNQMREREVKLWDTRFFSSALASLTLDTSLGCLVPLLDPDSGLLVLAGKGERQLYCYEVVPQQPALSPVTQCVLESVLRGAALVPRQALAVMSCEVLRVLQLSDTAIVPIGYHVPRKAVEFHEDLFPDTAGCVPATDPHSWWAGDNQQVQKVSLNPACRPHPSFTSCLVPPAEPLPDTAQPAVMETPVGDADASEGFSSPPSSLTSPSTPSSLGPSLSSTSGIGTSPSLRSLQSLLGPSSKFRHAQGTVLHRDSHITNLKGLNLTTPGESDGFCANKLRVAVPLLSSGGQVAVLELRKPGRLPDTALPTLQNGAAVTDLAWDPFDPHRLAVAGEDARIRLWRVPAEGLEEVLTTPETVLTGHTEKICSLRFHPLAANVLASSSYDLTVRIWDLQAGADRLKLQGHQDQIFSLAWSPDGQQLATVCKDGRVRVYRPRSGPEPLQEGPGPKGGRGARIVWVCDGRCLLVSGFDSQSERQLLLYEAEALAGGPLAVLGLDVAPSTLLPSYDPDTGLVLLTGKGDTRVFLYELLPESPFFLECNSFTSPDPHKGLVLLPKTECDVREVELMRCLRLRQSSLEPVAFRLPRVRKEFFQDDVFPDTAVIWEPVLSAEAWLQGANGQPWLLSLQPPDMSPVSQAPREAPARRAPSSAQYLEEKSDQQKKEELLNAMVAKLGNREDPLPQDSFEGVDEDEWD

Assay [2] has as its target GST-Cdc42 dominant negative (DN/T17N), preloaded with GDP (UniProt P60953). The description is as above.

Consider two substances from paper PMC4855144.

Results are given in words; binding and its absence hold for the method and conditions named. Binding seen in cells or lysates may run through a third protein. Binding can be weak; no strength is given.

Consider “GFP-Mut1 (GFP-CRN7 with SXP of the NT-CRIB changed to alanines) (from UniProt P57737)”, for which the binding entry in assay [1] and in assay [2] was “binds” throughout.
As for “GFP-Mut2 (GFP-CRN7 with LTXP of the CT-CRIB changed to alanines) (from UniProt P57737)”, the binding entry in assay [1] and in assay [2] was “binds” in each case.
